The test system of one test is PC-3 cells. As to the kind of experiment: Cell viability. It counts as cell-based. The note with it: Homo sapiens, PC-3, read-out: IC50 (mean ± SD; n = 3). Summed up: (§1)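 Cells were grown in medium with 10% FBS and penicillin/streptomycin 100 units/mL, humidified, at 37 °C and 5% CO2; HT-29 and HEKa were in RPMI-1640. About 2000 cells/well were seeded in 96-well plates. Cells were rinsed once with PBS and five times with distilled water.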

The test system of a further test is HepG2 cells. As to the kind of experiment: Cell viability. To be noted: Homo sapiens, HepG2, read-out: IC50 (mean ± SD; n = 3). It counts as cell-based. Summed up: as §1

Converted amounts (≈) assume the structure as drawn.

With `COc1cccc2c1C(=O)c1c(O)c3c(c(O)c1C2=O)C[C@@](O)(C(=O)CO)C[C@@H]3O[C@H]1C[C@H](N)[C@H](O)[C@H](C)O1` [Doxorubicin], the figures for the IC50 in the test with PC-3 cells and with HepG2 cells were 1.2 ± 0.6 µg/mL (≈ 2.21 µM) and 0.8 ± 0.1 µg/mL (≈ 1.47 µM), respectively.

The IC50 is the point on the concentration scale where inhibition reaches its midpoint.

For the origin of these results see paper PMC10203771 (Saudi Pharmaceutical Journal : SPJ, 2023).
